# Values from PubChem BioAssay AID686937 (Drosophila RNAi Screening Center, 2013)
# Aim: 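Knock-downs that reduce output of a secreted reporter enzyme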 (primary screen)
# Cell system: Drosophila S2 cells expressing secreted horseradish peroxidase
# Reagent: long dsRNA against Drosophila genes
# Time to read-out: about 5.5 days (5 days dsRNA, then 12 h reporter induction)
# Conditions: reporter expression induced after 5 days of dsRNA, read 12 h later; inducer not stated
# Measured: 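Chemiluminescent measurement of peroxidase in the medium 12 h after reporter induction, following 5 days of dsRNA, given as a z-score per plate; higher means more secretion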
# Reading the numbers: z-score: higher = more reporter secreted into medium
# The deposit covers about 23,000 reagents; shown is an unselected part of those with a known target gene and a result. 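Reduced-secretion tags in replicate 1 do not always agree with the z-scores; no criterion for assigning the tags was given.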 Reagents against one gene are numbered here. No sequences are given here. Not stated in the record: the amount of reagent.
Target gene,dsRNA no.,"z-score, replicate 1","z-score, replicate 2","z-score, replicate 3","z-score, replicate 4","phenotype, replicate 1"
CG17377 (GeneID 33954),1,0.66,0.09,0.18,-0.03,
CG17377 (GeneID 33954),2,0.17,0.31,,,
CG17377 (GeneID 33954),3,2.13,0.94,,,
CG10366 (GeneID 35258),1,-0.03,0.3,,,
Pvr (GeneID 34127),1,-1.63,-0.87,,,reduced secretion
nmd (GeneID 44021),1,0.34,0.13,,,
E(spl)m4-BFM (GeneID 43157),1,0.08,0.18,,,
CG34290 (GeneID 5740609),1,0.15,0.43,,,
CG31678 (GeneID 35327),1,-0.23,0.05,,,
CG31678 (GeneID 35327),2,0.06,-0.06,,,
CG15152 (GeneID 35082),1,0.35,0.25,,,
kmr (GeneID 5740131),1,0.39,0.46,,,
kmr (GeneID 5740131),2,0.27,0.29,,,
kmr (GeneID 5740131),3,0.51,0.36,,,
kmr (GeneID 5740131),4,-0.17,-0.09,,,
CG17738 (GeneID 41490),1,0.35,0.78,,,
CG11211 (GeneID 35545),1,0.2,0.38,,,
Blos3 (GeneID 5740347),1,-1.75,0.37,,,
eag (GeneID 32428),1,0.11,-1.16,,,
eag (GeneID 32428),2,0.31,0.36,,,
CG9029 (GeneID 33815),1,0.19,0.18,,,
AdamTS-B (GeneID 31490),1,-0.19,-0.32,,,
AdamTS-B (GeneID 31490),2,0.45,0.64,,,
Dlish (GeneID 37014),1,0.45,0.5,,,
ACXC (GeneID 34689),1,0.74,0.35,,,
Sk1 (GeneID 32089),1,-0.65,-1.18,,,
step (GeneID 35425),1,1.45,0.27,,,
step (GeneID 35425),2,0.11,0.14,,,
CG15642 (GeneID 32476),1,0.21,0.57,,,
CG13127 (GeneID 34335),1,-0.49,0.06,,,
mEFTs (GeneID 35060),1,0.02,-0.18,,,
CG13073 (GeneID 39773),1,0.32,0.26,,,
CG12155 (GeneID 31682),1,-0.24,0.16,,,
Or10a (GeneID 32086),1,0.35,0.37,,,
red (GeneID 41738),1,-1,-0.42,,,
Myo95E (GeneID 2768680),1,0.49,0.25,,,
Madm (GeneID 40710),1,-2.13,-1.17,,,reduced secretion
Wdfy2 (GeneID 34425),1,0.24,0.25,,,
CG3301 (GeneID 42528),1,0.37,0.41,,,
Ance-3 (GeneID 34808),1,0.4,0.24,,,
Ance-3 (GeneID 34808),2,0.34,0.27,,,
Or92a (GeneID 42425),1,0.21,0.13,,,
Bbd (GeneID 37314),1,-0.25,0.42,,,
Gdh (GeneID 42832),1,0.24,0.01,,,
CG5773 (GeneID 37053),1,0.42,0.19,,,
Ids (GeneID 38423),1,0.28,0.35,,,
CG10208 (GeneID 42814),1,0.59,0.52,,,
CG17752 (GeneID 42337),1,0.39,0.5,,,
RPA2 (GeneID 35364),1,0.2,0.16,,,
CG9628 (GeneID 39593),1,0.35,0.39,,,
Gr22d (GeneID 14462661),1,-0.59,-0.52,,,
TyrRS-m (GeneID 37965),1,0.07,0.11,,,
santa-maria (GeneID 34024),1,-0.44,-0.08,,,
santa-maria (GeneID 34024),2,0.04,0.35,,,
CG17917 (GeneID 40778),1,0.31,-0.42,,,
Bre1 (GeneID 38652),1,-0.09,0.41,,,
